Source: US11946094B2, “Combination therapies and methods of use thereof” (Augusta University Research Institute, Inc., priority 2017, dated 2024)

Tested on: OVCAR-8 cells
Assay: Drug-siRNA combination screen: 346-compound anticancer library at 100 nM, CCK-8 viability

COC(=O)[C@H](CCCN=C(N)N)NS(=O)(=O)c1ccc(C)cc1 [TAME]
Score (sum of observed SD values for 18 genes): −1.98 SD
